Measurements reported in PubChem BioAssay AID1508597 (Cure First, 2020).

Screen: 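Genes whose silencing sensitises or protects ovarian cancer cells against rucaparib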 (primary screen)
Cell system: human ovarian carcinoma lines grown from tumours: OCI-P5x (papillary serous) and OCI-C5x (clear cell)
Knock-down reagent: siRNA pool against human genes, 1.25 pmol siRNA per well
Timing: 72 h or 96 h, depending on the cell culture
Conditions: rucaparib 20 µM (about IC30) or vehicle, present until read-out
Rucaparib or vehicle: Vehicle
Cell line: OCI-C5x (clear cell)
Measurement: 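Luminescent ATP-based viability assay read 72 or 96 h after transfection, depending on culture, given as normalised percent viability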
Direction: viability, normalised: higher = more viable cells remaining
Rule for the call: 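Active when normalised viability falls below 80 percent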
Meaning of the calls: active = viability under 80%; inactive = viability 80% or more
This is an unselected part of the about 2,100 reagents, under one of the conditions tested. 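Calls flag viability under 80% in either arm, not effects specific to rucaparib; the reference for percent is not stated.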 Some reagents were tested in more than one well and are listed for each. The record does not give: the 100% reference.

target gene	technical replicate	viability, normalised (%)	Call
PMS2P3 (GeneID 5387)	1	41.6	active
PMS2P3 (GeneID 5387)	2	43.9	active
PMS2P3 (GeneID 5387)	3	46.9	active
RPS6KL1 (GeneID 83694)	1	57.7	active
RPS6KL1 (GeneID 83694)	2	76.6	active
RPS6KL1 (GeneID 83694)	3	60.9	active
LTK (GeneID 4058)	1	61.7	active
LTK (GeneID 4058)	2	38.6	active
LTK (GeneID 4058)	3	45.1	active
MAST3 (GeneID 23031)	1	57.3	active
MAST3 (GeneID 23031)	2	54.1	active
MAST3 (GeneID 23031)	3	63.7	active
SFN (GeneID 2810)	1	36.2	active
SFN (GeneID 2810)	2	51.8	active
SFN (GeneID 2810)	3	56.2	active
CAMK1G (GeneID 57172)	1	52.1	active
CAMK1G (GeneID 57172)	1	50	active
CAMK1G (GeneID 57172)	2	60.2	active
CAMK1G (GeneID 57172)	2	64.8	active
CAMK1G (GeneID 57172)	3	54.2	active
CAMK1G (GeneID 57172)	3	48	active
GRK7 (GeneID 131890)	1	104	inactive
GRK7 (GeneID 131890)	2	83.8	inactive
GRK7 (GeneID 131890)	3	66.3	active
CAMK2G (GeneID 818)	1	39.4	active
CAMK2G (GeneID 818)	1	79.3	active
CAMK2G (GeneID 818)	2	80.9	inactive
CAMK2G (GeneID 818)	2	66.9	active
CAMK2G (GeneID 818)	3	54.3	active
CAMK2G (GeneID 818)	3	55.4	active
KMT5B (GeneID 51111)	1	58	active
KMT5B (GeneID 51111)	2	62.5	active
KMT5B (GeneID 51111)	3	70.3	active
DNMT1 (GeneID 1786)	1	56.9	active
DNMT1 (GeneID 1786)	2	69.4	active
DNMT1 (GeneID 1786)	3	60.2	active
USH2A (GeneID 7399)	1	84.4	inactive
USH2A (GeneID 7399)	2	66.9	active
USH2A (GeneID 7399)	3	66.2	active
MAPK12 (GeneID 6300)	1	59.8	active
MAPK12 (GeneID 6300)	2	51.6	active
MAPK12 (GeneID 6300)	3	53.7	active
HGF (GeneID 3082)	1	47.2	active
HGF (GeneID 3082)	2	67.3	active
HGF (GeneID 3082)	3	69.2	active
SCMH1 (GeneID 22955)	1	38.4	active
SCMH1 (GeneID 22955)	2	45.9	active
SCMH1 (GeneID 22955)	3	36.9	active
BUB1B (GeneID 701)	1	65.6	active
BUB1B (GeneID 701)	1	61.7	active
BUB1B (GeneID 701)	1	29.4	active
BUB1B (GeneID 701)	2	53.6	active
BUB1B (GeneID 701)	2	66.6	active
BUB1B (GeneID 701)	2	24.4	active
BUB1B (GeneID 701)	3	65.2	active
BUB1B (GeneID 701)	3	48.8	active
BUB1B (GeneID 701)	3	47.4	active

As entered above.
SCMH1 (GeneID 22955), technical replicate 3, viability, normalised (%) = 36.9
Under “Call”, RPS6KL1 (GeneID 83694), technical replicate 3 reads active
GRK7 (GeneID 131890), technical replicate 3, viability, normalised (%) → 66.3
KMT5B (GeneID 51111), technical replicate 1, Call = active
Result for KMT5B (GeneID 51111), technical replicate 2 in “Call”: active
Under “Call”, MAST3 (GeneID 23031), technical replicate 1 reads active
